Experiment [1] deals with GhTCP14a (Gossypium hirsutum (upland cotton)). Nature of the experiment: two-hybrid; GAL4 system, Y2HGold yeast; GhTCP14a or GhTCP22 with fiber-related TFs; growth on TDO medium (lacking Leu, Trp and His) with 1 mM 3-AT; which partner was bait is not stated.
Experiment [2] concerns the target GhTCP22 (Gossypium hirsutum (upland cotton)). The experiment is described as above.

These are yes or no findings as the source states them, for the method shown. Binding calls can cover weak binding; strength is not graded here.

B1: GhTTG1 (protein, UniProt Q9ATD6 1-345)
chain: MENSTQESHLRSDNSVTYESAYTVYAMALSSTPSSTNINHQRIALGSFLEDYTNRVDIISFDPETLSFKTHPKLAFDHPYPPTKLMFQPNRKSASSSSSCSDLLASTGDFLRLWEVRESSIEPVTVLNNSKTSEFCAPLTSFDWNDVEPKRIGTSSIDTTCTIWDIEKCVVETQLIAHDKEVYDIAWGEARVFASVSADGSVRIFDLRDKEHSTIIYESPQPDTPLLRLAWNKQDLKYMATIQMDSNKVVILDIRSPTTPVAELERHHASVNAIAWAPQSCKHICSAGDDTQALIWELPTVAGPNGIDPLCVYSAGYEINQLQWSRAQPDWIAIAFSNKLQLLKV
As for B1, the binding entry in experiment [1] and in experiment [2] was “binds” throughout.
